Earlier results as cited in US7537765B2, “Inhibition of HIV-1 replication by disruption of the processing of the viral capsid-spacer peptide 1 protein” (priority 2003, dated 2009).
Some results were stated once for a whole list of compounds, not compound by compound. At least one structure is not confirmed: it was looked up by name or label, or the drawing left a doubt.

Tested on: HIV-1 replication in H9 lymphocyte cells
Details: acutely infected H9 lymphocytes; read-out: EC50, anti-HIV activity; cited from earlier work

Compound	EC50
CC(C)[C@@H]1CC[C@]2(C(=O)O)CC[C@]3(C)[C@H](CC[C@@H]4[C@@]5(C)CC[C@H](OC(=O)CC(C)(C)C(=O)O)C(C)(C)[C@@H]5CC[C@]43C)[C@@H]12 [dihydrobetulinic acid analog, 3-O-(3′,3′-dimethylsuccinyl)dihydrobetulinic acid]	< 0.017 nM
C=C(C)[C@@H]1CC[C@]2(C(=O)O)CC[C@]3(C)[C@H](CC[C@@H]4[C@@]5(C)CC[C@H](OC(=O)CC(C)(C)C(=O)O)C(C)(C)[C@@H]5CC[C@]43C)[C@@H]12 [DSB, 3-O-(3′,3′-dimethylsuccinyl)betulinic acid]	< 0.017 nM
